Assay [1] has as its target T1, IFIT1^WT-Myc (UniProt P09914).
T1 sequence: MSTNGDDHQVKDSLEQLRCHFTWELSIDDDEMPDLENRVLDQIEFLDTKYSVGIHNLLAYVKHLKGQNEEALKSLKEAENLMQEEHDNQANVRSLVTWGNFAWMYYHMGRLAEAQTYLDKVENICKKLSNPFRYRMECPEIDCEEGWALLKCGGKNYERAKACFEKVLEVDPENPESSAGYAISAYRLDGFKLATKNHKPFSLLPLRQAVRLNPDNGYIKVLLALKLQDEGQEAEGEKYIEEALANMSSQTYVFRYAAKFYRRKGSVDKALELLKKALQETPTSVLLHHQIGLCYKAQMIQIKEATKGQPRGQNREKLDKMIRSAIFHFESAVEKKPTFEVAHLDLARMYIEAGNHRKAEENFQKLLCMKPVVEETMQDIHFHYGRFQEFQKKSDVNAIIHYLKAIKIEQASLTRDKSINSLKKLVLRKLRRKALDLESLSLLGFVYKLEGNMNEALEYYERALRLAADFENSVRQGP
As to the kind of experiment: co-IP; verification in A549 and H1299 cells (Fig. S9, E and F); details not shown.

The target of assay [2] is T1, IFIT1^WT-Myc. Nature of the assay: co-IP; anti-Myc antibodies on lysates of H1975 cells overexpressing HA-tagged OAS (WT or Del-NT) and Myc-tagged IFIT (WT or Del-TPR12); protein A/G beads overnight at 4 °C; immunoblot (OAS3/IFIT3 and OAS2/IFIT5 in Fig. S8C, details not shown).
The next assay addresses T2, IFIT3^WT (UniProt O14879).
T2 sequence: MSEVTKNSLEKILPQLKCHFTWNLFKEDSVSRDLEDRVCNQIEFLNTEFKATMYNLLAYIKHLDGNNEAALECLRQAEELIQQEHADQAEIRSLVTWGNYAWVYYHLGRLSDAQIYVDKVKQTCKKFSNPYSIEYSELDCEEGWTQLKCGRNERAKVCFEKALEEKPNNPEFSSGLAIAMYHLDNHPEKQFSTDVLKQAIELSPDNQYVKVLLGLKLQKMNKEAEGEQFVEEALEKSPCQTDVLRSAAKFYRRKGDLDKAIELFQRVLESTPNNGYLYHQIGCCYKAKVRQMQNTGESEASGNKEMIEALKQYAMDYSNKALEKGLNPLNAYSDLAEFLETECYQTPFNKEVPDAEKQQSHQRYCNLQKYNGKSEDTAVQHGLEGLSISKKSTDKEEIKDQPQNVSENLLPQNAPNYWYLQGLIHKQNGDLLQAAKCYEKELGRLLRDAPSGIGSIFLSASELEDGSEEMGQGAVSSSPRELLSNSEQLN
The assay is described as above.

These are yes or no findings as the source states them, for the method shown. In cells and extracts the contact can be indirect. Some binding calls cover weakened binding; strength is not graded here. For part of these data: Tags and fused reporters may be left off the sequences shown.

B1: OAS1^WT-HA (protein, UniProt P00973 1-400)
chain: MMDLRNTPAKSLDKFIEDYLLPDTCFRMQINHAIDIICGFLKERCFRGSSYPVCVSKVVKGGSSGKGTTLRGRSDADLVVFLSPLTTFQDQLNRRGEFIQEIRRQLEACQRERAFSVKFEVQAPRWGNPRALSFVLSSLQLGEGVEFDVLPAFDALGQLTGGYKPNPQIYVKLIEECTDLQKEGEFSTCFTELQRDFLKQRPTKLKSLIRLVKHWYQNCKKKLGKLPPQYALELLTVYAWERGSMKTHFNTAQGFRTVLELVINYQQLCIYWTKYYDFKNPIIEKYLRRQLTKPRPVILDPADPTGNLGGGDPKGWRQLAQEAEAWLNYPCFKNWDGSPVSSWILLAESNSADDETDDPRRYQKYGYIGTHEYPHFSHRPSTLQAASTPQAEEDWTCTIL
For the molecule B1, the binding result in the assay with IFIT1^WT-Myc [1] and with IFIT1^WT-Myc [2] was “binds” each time.

B2: OAS3^WT (protein, UniProt Q9Y6K5 1-1087)
chain: MDLYSTPAAALDRFVARRLQPRKEFVEKARRALGALAAALRERGGRLGAAAPRVLKTVKGGSSGRGTALKGGCDSELVIFLDCFKSYVDQRARRAEILSEMRASLESWWQNPVPGLRLTFPEQSVPGALQFRLTSVDLEDWMDVSLVPAFNVLGQAGSGVKPKPQVYSTLLNSGCQGGEHAACFTELRRNFVNIRPAKLKNLILLVKHWYHQVCLQGLWKETLPPVYALELLTIFAWEQGCKKDAFSLAEGLRTVLGLIQQHQHLCVFWTVNYGFEDPAVGQFLQRQLKRPRPVILDPADPTWDLGNGAAWHWDLLAQEAASCYDHPCFLRGMGDPVQSWKGPGLPRAGCSGLGHPIQLDPNQKTPENSKSLNAVYPRAGSKPPSCPAPGPTGAASIVPSVPGMALDLSQIPTKELDRFIQDHLKPSPQFQEQVKKAIDIILRCLHENCVHKASRVSKGGSFGRGTDLRDGCDVELIIFLNCFTDYKDQGPRRAEILDEMRAQLESWWQDQVPSLSLQFPEQNVPEALQFQLVSTALKSWTDVSLLPAFDAVGQLSSGTKPNPQVYSRLLTSGCQEGEHKACFAELRRNFMNIRPVKLKNLILLVKHWYRQVAAQNKGKGPAPASLPPAYALELLTIFAWEQGCRQDCFNMAQGFRTVLGLVQQHQQLCVYWTVNYSTEDPAMRMHLLGQLRKPRPLVLDPADPTWNVGHGSWELLAQEAAALGMQACFLSRDGTSVQPWDVMPALLYQTPAGDLDKFISEFLQPNRQFLAQVNKAVDTICSFLKENCFRNSPIKVIKVVKGGSSAKGTALRGRSDADLVVFLSCFSQFTEQGNKRAEIISEIRAQLEACQQERQFEVKFEVSKWENPRVLSFSLTSQTMLDQSVDFDVLPAFDALGQLVSGSRPSSQVYVDLIHSYSNAGEYSTCFTELQRDFIISRPTKLKSLIRLVKHWYQQCTKISKGRGSLPPQHGLELLTVYAWEQGGKDSQFNMAEGFRTVLELVTQYRQLCIYWTINYNAKDKTVGDFLKQQLQKPRPIILDPADPTGNLGHNARWDLLAKEAAACTSALCCMGRNGIPIQPWPVKAAV
On to B2, for which the binding entry with IFIT3^WT is listed as “binds”.

The values are drawn from article PMC11736008.
